Results are given in words; binding and its absence hold for the method and conditions named. Some binding calls cover weakened binding; strength is not graded here.
Biological target: STAT3 (mouse (endogenous in RAW 264.7)) (UniProt P42227)
Assay: immunodepletion (flow-through after IP); anti-STAT3 antibody IP from lysates of RAW 264.7 cells treated with PBS or with rmCIRP (1 µg/ml, 24 h), with or without stattic (3 µM); protein A/G magnetic beads; free βPIX left in the flow-through detected by Western blot

Protein sequences, listed by entry. Tags and fused reporters are not part of them.
UniProt P42227: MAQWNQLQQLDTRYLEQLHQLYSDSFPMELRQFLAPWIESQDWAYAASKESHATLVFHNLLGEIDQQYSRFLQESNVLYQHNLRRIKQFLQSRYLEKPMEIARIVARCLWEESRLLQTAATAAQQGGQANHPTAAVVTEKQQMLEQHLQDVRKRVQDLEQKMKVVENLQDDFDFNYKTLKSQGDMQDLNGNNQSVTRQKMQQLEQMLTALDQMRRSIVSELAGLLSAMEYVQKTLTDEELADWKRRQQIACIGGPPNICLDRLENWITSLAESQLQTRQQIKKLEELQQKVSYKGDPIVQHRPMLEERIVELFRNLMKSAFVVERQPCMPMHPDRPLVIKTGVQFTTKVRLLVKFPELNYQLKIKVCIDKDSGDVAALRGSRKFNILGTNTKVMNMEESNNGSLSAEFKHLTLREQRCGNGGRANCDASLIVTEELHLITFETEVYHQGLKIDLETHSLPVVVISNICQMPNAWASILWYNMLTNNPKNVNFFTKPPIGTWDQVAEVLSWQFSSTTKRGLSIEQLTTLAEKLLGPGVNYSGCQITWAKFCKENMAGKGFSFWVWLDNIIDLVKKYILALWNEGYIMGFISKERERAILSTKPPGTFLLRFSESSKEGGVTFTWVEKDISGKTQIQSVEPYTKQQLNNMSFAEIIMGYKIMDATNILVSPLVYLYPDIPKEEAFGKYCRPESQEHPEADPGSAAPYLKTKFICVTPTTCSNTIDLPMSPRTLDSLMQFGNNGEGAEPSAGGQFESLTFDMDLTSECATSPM

binding: binds
B1: βPIX (protein, UniProt Q9ES28 1-862)
chain: MNSAEQTVTWLITLGVLESPKKTISDPEVFLQASLKDGVVLCRLLERLLPGTIEKVYPEPRNESECLSNIREFLRACGASLRLETFDANDLYQGQNFNKVLSSLVTLNKVTADIGLGSDSVCARPSSHRIKSFDSLGSQSSHSRTSKLLQSQYRSLDMTDNTNSQLVVRAKFNFQQTNEDELSFSKGDVIHVTRVEEGGWWEGTHNGRTGWFPSNYVREIKPSEKPVSPKSGTLKSPPKGFDTTAINKSYYNVVLQNILETEHEYSKELQSVLSTYLRPLQTSDKLSSANTSYLMGNLEEISSFQQVLVQSLEECTKSPEAQQRVGGCFLSLMPQMRTLYLAYCANHPSAVSVLTEHSEDLGEFMETKGASSPGILVLTTGLSKPFMRLDKYPTLLKELERHMEDYHPDRQDIQKSMTAFKNLSAQCQEVRKRKELELQILTEPIRSWEGDDIKTLGSVTYMSQVTIQCAGSEEKNERYLLLFPNLLLMLSASPRMSGFIYQGKLPTTGMTITKLEDSENHRNAFEISGSMIERILVSCTSQQDLHEWVEHLQKQTKVTSVSNPTIKPHSVPSHTLPSHPLTPSSKHADSKPVALTPAYHTLPHPSHHGTPHTTISWGPLEPPKTPKPWSLSCLRPAPPLRPSAALCYKEDLSKSPKTMKKLLPKRKPERKPSDEEFAVRKSTAALEEDAQILKVIEAYCTSAKTRQTLNSTWQGTDLMHNHVLADDDQSSLDSLGRRSSLSRLEPSDLSEDSEYDSIWTAHSYRMGSASRSRKESAPQVLLPEEEKIIVEETKSNGQTVIEEKSLVDTVYALKDEVQELRQDNKKMKKSLEEEQRARKDLEKLVRKVLKNMNDPAWDETNL

Source: article PMC9794804
